Results taken from patent US20230203127A1.
These are yes or no findings as the source states them, for the method shown. Binding calls can cover weak binding; strength is not graded here.

Each binder was assayed against HLA-A*02:01 (human) (assay: UV peptide-exchange ELISA, exchange yield grade).

binding, binds:
KLLPMVIQL [… (SEQ ID NO: 63)]
SLYAGSNNQV [… (SEQ ID NO: 64)]
SLSEKSPEV [… (SEQ ID NO: 65)]
AMFPDTIPRV [… (SEQ ID NO: 66)]
ALLQALMEL [… (SEQ ID NO: 7)]
FLIENLLAA [… (SEQ ID NO: 67)]
QLMNLIRSV [… (SEQ ID NO: 68)]
LKVLKADVVL [… (SEQ ID NO: 69)]
GLTEKTVLV [… (SEQ ID NO: 70)]
HMSGKLTNV [… (SEQ ID NO: 71)]
VLSTRVTNV [… (SEQ ID NO: 72)]
GLAFLPASV [… (SEQ ID NO: 74)]
ALLDGALQL [… (SEQ ID NO: 75)]
FTAEFLEKV [… (SEQ ID NO: 76)]
ALYGNVQQV [… (SEQ ID NO: 77)]
SLITGQDLLSV [… (SEQ ID NO: 9)]
TVLEEIGNRV [… (SEQ ID NO: 79)]
VLTGQVHEL [… (SEQ ID NO: 80)]
ILAEEPIYI [… (SEQ ID NO: 81)]
ILAEEPIYIRV [… (SEQ ID NO: 82)]
GLLENSPHL [… (SEQ ID NO: 83)]
FLLEREQLL [… (SEQ ID NO: 84)]
KLLDKPEQFL [… (SEQ ID NO: 85)]
SLFSNIESV [… (SEQ ID NO: 86)]
KLLSLLEEA [… (SEQ ID NO: 87)]
LLLPLELSLA [… (SEQ ID NO: 88)]
QLIEKNWLL [… (SEQ ID NO: 10)]
SLAETIFIV [… (SEQ ID NO: 89)]
AILNVDEKNQV [… (SEQ ID NO: 90)]
LLPSIFLMV [… (SEQ ID NO: 91)]
RLFEEVLGV [… (SEQ ID NO: 92)]
RLYGYFHDA [… (SEQ ID NO: 93)]
YLDEVAFML [… (SEQ ID NO: 94)]
KLIDEDEPLFL [… (SEQ ID NO: 95)]
ALDTTRHEL [… (SEQ ID NO: 96)]
KLFEKSTGL [… (SEQ ID NO: 97)]
FVQEKIPEL [… (SEQ ID NO: 98)]
LLDPKTIFL [… (SEQ ID NO: 11)]
TLFGIQLTEA [… (SEQ ID NO: 99)]
ALQSFEFRV [… (SEQ ID NO: 100)]
SLLEVNEASSV [… (SEQ ID NO: 101)]
GLYPVTLVGV [… (SEQ ID NO: 102)]
YLADTVQKL [… (SEQ ID NO: 103)]
AMLASQTEA [… (SEQ ID NO: 105)]
VLLGSVVIFA [… (SEQ ID NO: 106)]
RVLPGQAVTGV [… (SEQ ID NO: 107)]
FIANLPPELKA [… (SEQ ID NO: 108)]
ILGSFELQL [… (SEQ ID NO: 109)]
